Assay results: US8530459B2, “Swallowtail motifs for imparting water solubility to porphyrinic compounds” (North Carolina State University, priority 2005, dated 2013)
Some results were stated once for a whole list of compounds, not compound by compound. At least one compound was matched to its structure with a doubt left.

Test: Water-solubility of pure porphyrin in distilled water
Format: physicochemical
Conditions: 8-10 mg of pure porphyrin completely dissolved in 300 μL of distilled water; upper limit not determined
Protocol: Determination of the upper limit of water-solubility was not possible due to the lack of material; however, in each case examined, 8-10 mg of pure porphyrin (14b, 17b, Zn17b, 17a, Zn17a) completely dissolved in 300 μL of distilled water, consistent with a concentration of >20 mM.

Molecule	water-solubility (concentration) [mM]
O=C(O)COc1ccc(-c2c3nc(cc4ccc([n-]4)c(C(CCP(=O)(O)O)CCP(=O)(O)O)c4nc(cc5ccc2[n-]5)C=C4)C=C3)cc1.[Zn+2] [Zn17a, Zn(II)-5-(4-(Carboxymethoxy)phenyl)-15-[1,5-bis(dihydroxyphosphoryl)pent-3-yl]porphyrin]	> 20
Zn(II)-5-(4-Bromophenyl)-15-[1,5-bis(dihydroxyphosphoryl)pent-3-yl]porphyrin [Zn17b]	> 20
